This is an account of results in patent US20100022401A1, “Avidin-like proteins from symbiotic bacteria” (LICENTIA OY, priority 2004, published 2010).

This data set concerns human serum antibodies elicited toward avidin and streptavidin. Briefly: ELISA immunological cross-reactivity with sera of cancer patients exposed to avidin and streptavidin. The format is binding. The following applies: diluted 1:100.

B1: Avidin: chicken avidin (SEQ ID NO:6), glycosylated biotin-binding protein (protein)
chain: NSARSTPGCPPAAEMVHATSPLLLLLLLSLALVAPGLSARKCSLTGKWTNDLGSNMTIGAVNSRGEFTGTYITAVTATSNEIKESPLHGTQNTINKRTQPTFGFTVNWKFSESTTVFTGQCFIDRNGKEVLKTMWLLRS
In the case of B1, the “Recognition by patient sera (ELISA, absorbance at 405 nm)” value is reported as “recognised”.

B2: Bradavidin: full length wild-type (138 amino acid residues, SEQ ID NO:1) avidin-like biotin-binding protein from Bradyrhizobium japonicum (protein, listed as Bradyrhizobium japonicum)
chain: QSVNWTWTNQYGSTLAITSFNSNTGAITGTYTNNAANSCDEGKPQGVTGWLAYGNTGTAISFSVNFLGCGSTTVWTGQLNNATGFQGLWYLSLAEAVAWNGISAGADTFTFSSGDKALLTKSGVDLKAGSEKLSNTKK
Turning to B2, the “Recognition by patient sera (ELISA, absorbance at 405 nm)” value is on record as “None of the patient sera showed a significant response”.
